Data on eight sequences can be found in paper PMC4077741, “Miz-1 Activates Gene Expression via a Novel Consensus DNA Binding Motif”.

The target of data set [1] is T1, MBP-Miz-1-FL (Homo sapiens) (UniProt Q13105).
T1 sequence (looked up, limits assumed): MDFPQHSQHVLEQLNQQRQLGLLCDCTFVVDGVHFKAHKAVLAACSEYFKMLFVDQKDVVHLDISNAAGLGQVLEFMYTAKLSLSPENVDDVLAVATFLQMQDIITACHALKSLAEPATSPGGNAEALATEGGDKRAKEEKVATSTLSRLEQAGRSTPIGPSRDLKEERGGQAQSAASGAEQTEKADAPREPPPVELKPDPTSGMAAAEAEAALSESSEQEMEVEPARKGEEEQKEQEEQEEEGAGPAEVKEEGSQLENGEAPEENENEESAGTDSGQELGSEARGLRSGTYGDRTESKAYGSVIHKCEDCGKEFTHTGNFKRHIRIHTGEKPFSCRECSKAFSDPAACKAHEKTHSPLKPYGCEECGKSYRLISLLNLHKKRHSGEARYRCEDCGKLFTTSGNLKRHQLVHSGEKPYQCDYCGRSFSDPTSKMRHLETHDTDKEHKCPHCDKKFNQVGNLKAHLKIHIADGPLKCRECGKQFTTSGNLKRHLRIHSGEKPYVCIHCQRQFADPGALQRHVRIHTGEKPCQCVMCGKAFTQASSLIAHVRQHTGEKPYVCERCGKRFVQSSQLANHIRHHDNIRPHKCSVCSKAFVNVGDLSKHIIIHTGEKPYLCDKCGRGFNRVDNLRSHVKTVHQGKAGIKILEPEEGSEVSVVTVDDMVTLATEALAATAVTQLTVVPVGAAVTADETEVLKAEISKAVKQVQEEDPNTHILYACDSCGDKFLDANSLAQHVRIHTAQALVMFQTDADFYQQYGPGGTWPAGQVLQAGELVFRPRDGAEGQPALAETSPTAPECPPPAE
Briefly: competition with a labelled probe. Conditions: EMSA: ZBA (10 mM Tris pH 7.5, 90 mM KCl, 1 mM MgCl2, 90 uM ZnCl2, 5 mM DTT) with 100 ng/ul poly(dI-dC), 15 min, room temperature, recombinant protein, protein details: N-terminal MBP, label: none (unlabeled competitor).

In data set [2] the target is T2, MBP-Miz-1-ZF (Homo sapiens) (UniProt Q13105).
T2 sequence (Q13105 269-793, looked up): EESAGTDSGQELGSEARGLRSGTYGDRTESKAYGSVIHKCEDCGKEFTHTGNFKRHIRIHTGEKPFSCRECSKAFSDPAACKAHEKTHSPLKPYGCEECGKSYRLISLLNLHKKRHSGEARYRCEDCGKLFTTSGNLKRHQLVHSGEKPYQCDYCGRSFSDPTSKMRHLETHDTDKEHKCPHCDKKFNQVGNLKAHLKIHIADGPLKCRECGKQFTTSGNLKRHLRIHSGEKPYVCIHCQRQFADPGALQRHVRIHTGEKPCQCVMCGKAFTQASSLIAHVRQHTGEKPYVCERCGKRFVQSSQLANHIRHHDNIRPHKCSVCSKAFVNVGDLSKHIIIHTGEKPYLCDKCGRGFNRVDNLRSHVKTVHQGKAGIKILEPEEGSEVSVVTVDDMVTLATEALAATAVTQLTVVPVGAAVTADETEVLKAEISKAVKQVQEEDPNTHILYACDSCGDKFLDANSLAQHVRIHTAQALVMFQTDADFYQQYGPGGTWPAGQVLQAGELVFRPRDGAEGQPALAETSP
Nature of the data set: competition with a labelled probe. The conditions noted are these: EMSA: ZBA (10 mM Tris pH 7.5, 90 mM KCl, 1 mM MgCl2, 90 uM ZnCl2, 5 mM DTT) with 100 ng/ul poly(dI-dC), 15 min, room temperature, recombinant protein, residues 269-793, protein details: N-terminal MBP.

The target in data set [3] is T3, Miz-1 untagged (Homo sapiens) (UniProt Q13105).
T3 sequence (looked up, limits assumed): T1 sequence (looked up, limits assumed)
Briefly: EMSA. The conditions noted are these: lower affinity than P1; EMSA: ZBA (10 mM Tris pH 7.5, 90 mM KCl, 1 mM MgCl2, 90 uM ZnCl2, 5 mM DTT) with 100 ng/ul poly(dI-dC), 15 min, room temperature; protein translated in vitro. In general terms: In EMSA bound probe runs differently from free probe, usually more slowly.

The target in data set [4] is T2, MBP-Miz-1-ZF (Homo sapiens). Briefly: EMSA. The conditions noted are these: EMSA: ZBA (10 mM Tris pH 7.5, 90 mM KCl, 1 mM MgCl2, 90 uM ZnCl2, 5 mM DTT) with 100 ng/ul poly(dI-dC), 15 min, room temperature, recombinant protein, residues 269-793, protein details: N-terminal MBP.
The test system of another data set is Cux1. Briefly: EMSA. The conditions noted are these: EMSA: ZBA (10 mM Tris pH 7.5, 90 mM KCl, 1 mM MgCl2, 90 uM ZnCl2, 5 mM DTT) with 100 ng/ul poly(dI-dC), 15 min, room temperature; protein in an extract; label: 5' IRDye 700.
The next data set deals with MBP (unfused) (E. coli) (UniProt P0AEX9). Nature of the data set: EMSA. The conditions noted are these: tag-only control; EMSA: ZBA (10 mM Tris pH 7.5, 90 mM KCl, 1 mM MgCl2, 90 uM ZnCl2, 5 mM DTT) with 100 ng/ul poly(dI-dC), 15 min, room temperature; recombinant protein.

For part of these data: A negative result means that nothing was seen under these conditions. For part of these data: The exact form of at least one protein or probe is not confirmed. For part of these data: Weaker means in comparison with the reference protein, sequence or condition of that experiment. For part of these data: Where a protein sequence is shown, tags need not be part of it. For part of these data: Where cells or extracts were used, other partners may take part.

Take “GAATTATCCGTAATGCATCGAGGT (double strand) [P1m2]”: the binding result in data set [1] (unlabeled P1m2 vs labeled P1 or P2) is given as “binds more weakly”; in data set [2] (unlabeled P1m2 vs labeled P2, label: none (unlabeled competitor)) it was “binds more weakly”.
Regarding “AGGGTTGGTATCGATTATCGAGTT (double strand) [P2]”, the binding result in data set [2] (200-fold unlabeled P2 vs labeled P1, less able to compete than other combinations) is reported as “binds more weakly”; in data set [2] (200-fold unlabeled P2 vs labeled P2), “binds”; in data set [3] it was “binds more weakly”; in data set [4] it was “binds”.
Take “AGGGTTGGTATGGATTAACGAGTT (double strand) [P2m2]”: the binding result in data set [1] (unlabeled P2m2 vs labeled P1 or P2) was “binds more weakly”; in data set [2] (unlabeled P2m2 vs labeled P1 or P2, label: none (unlabeled competitor)), “binds more weakly”.
On to “AGGGTTGGTATCAATTATCTAGTT (double strand) [P2m1]”, for which the binding result is listed as “binds more weakly” in data set [1] (unlabeled P2m1 vs labeled P1 or P2) and “binds more weakly” in data set [2] (unlabeled P2m1 vs labeled P1 or P2, label: none (unlabeled competitor)).
Consider “CAAAAGTGCGGCTGCGTGGTGCAC (double strand) [CP]”, for which the binding result (in the data set with Cux1; in data set [4] (label: 5' IRDye 700)) was “no binding” each time.
Regarding “ACCCTTATATCGGTAATCGGTAAG (double strand) [P1m3]”, in data set [2] (unlabeled P1m3 vs labeled P1 or P2, range over both proteins and probes, label: none (unlabeled competitor)), the binding result is on record as “binds”.
As for “GAATTAGGAGTAAACCATCGAGGT (double strand) [P1m1]”, the binding result was “binds more weakly” in data set [1] (unlabeled P1m1 vs labeled P1 or P2) and “binds more weakly” in data set [2] (unlabeled P1m1 vs labeled P2, label: none (unlabeled competitor)).
With “GAATTATCGGTAATCCATCGAGGT (double strand) [P1]”, the figures for the binding result (in data set [2] (200-fold unlabeled P1 vs labeled P2); with MBP (unfused) (E. coli); in data set [4]) were “binds”, “no binding” and “binds”, respectively.
